This note sets out measurements from paper PMC5651264.

Amino acid sequences for entries named in this document (tags omitted). A change or cut given only in a name is not applied to a line headed by its entry.
UniProt Q9S7R5: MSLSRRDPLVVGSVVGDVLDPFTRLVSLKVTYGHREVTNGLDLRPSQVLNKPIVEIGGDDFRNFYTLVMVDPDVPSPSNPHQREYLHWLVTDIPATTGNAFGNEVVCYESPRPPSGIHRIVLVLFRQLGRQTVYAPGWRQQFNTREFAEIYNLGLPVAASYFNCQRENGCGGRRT
UniProt Q9FLH8: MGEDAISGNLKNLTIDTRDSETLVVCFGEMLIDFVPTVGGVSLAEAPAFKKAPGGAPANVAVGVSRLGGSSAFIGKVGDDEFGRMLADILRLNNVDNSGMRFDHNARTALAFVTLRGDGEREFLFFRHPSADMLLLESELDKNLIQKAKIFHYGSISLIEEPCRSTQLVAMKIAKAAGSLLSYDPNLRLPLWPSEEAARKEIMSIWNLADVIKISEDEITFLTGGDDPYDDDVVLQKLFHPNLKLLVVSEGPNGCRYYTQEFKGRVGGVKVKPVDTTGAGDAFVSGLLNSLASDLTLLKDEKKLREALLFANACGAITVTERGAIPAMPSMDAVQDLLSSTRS

The target in experiment [1] is TSF fused with the N-terminal fragment of YFP (TSF-NYFP) (Arabidopsis thaliana) (UniProt Q9S7R5). Kind of experiment: split reporter; BiFC with N- and C-terminal YFP fragments (pUC-SPYNE, pUC-SPYCE) co-transfected into Arabidopsis leaf protoplasts, 12 h, confocal microscopy.
Experiment [2] addresses GST-tagged TWIN SISTER OF FT (GST-TSF) (Arabidopsis thaliana) (UniProt Q9S7R5). Kind of experiment: pull-down; GST only or GST-TSF immobilised on glutathione-Sepharose 4B beads, incubated with purified FRK6-His or FRK7-His for 1 h at 4°C; four washes with GST lysis buffer (50 mM Tris-HCl pH 7.5, 0.1 M NaCl, 0.05% Tween-20, 1 mM EDTA); anti-His and anti-GST immunoblot; both purified. For orientation: Immunoblotting shows a protein as a band on a membrane.

No constants are given. Whether binding was seen depends on the method and setting. For some assays here: In cells and extracts the contact can be indirect.

On to “FRK7 fused with the C-terminal fragment of YFP (FRK7-CYFP) (from UniProt Q9FLH8) (enzyme)”, for which the binding result in experiment [1] is “no binding”.

Take “His-tagged FRUCTOKINASE7 (FRK7-His) (from UniProt Q9FLH8) (enzyme)”: the binding result in experiment [2] is “no binding”.
